These results are taken from paper PMC3834315.

Where a protein sequence is shown, tags need not be part of it.

For series [1], the target named is T1, VapB10 (Synechocystis sp. PCC 6803) (UniProt P73044).
T1 sequence (looked up): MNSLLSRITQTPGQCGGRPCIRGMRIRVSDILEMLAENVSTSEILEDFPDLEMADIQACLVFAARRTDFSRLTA
Briefly: EMSA. Conditions: 100 mM Tris-HCl pH 8.0, 100 mM NaCl, 1 mM DTT, 10% glycerol, 0.1 mg/ml sonicated salmon sperm DNA, about 10 nM labeled DNA, 30 min at room temperature; 5% native PAGE; recombinant protein; residues 1-74; label: 5'-32P; probe letters rebuilt from the primers and the genome. In general terms: In EMSA bound probe runs differently from free probe, usually more slowly.

Series [2] addresses T1, VapB10 (Synechocystis sp. PCC 6803). Briefly: competition with a labelled probe. The following applies: 1 uM unlabeled P competes with labeled P; 100 mM Tris-HCl pH 8.0, 100 mM NaCl, 1 mM DTT, 10% glycerol, 0.1 mg/ml sonicated salmon sperm DNA, about 10 nM labeled DNA, 30 min at room temperature; 5% native PAGE; recombinant protein; residues 1-74; label: 5'-32P; probe letters rebuilt from the primers and the genome.

As for “CGCTTCACTGAGCTGGTTGAGGTCAATTTTTTTATGCACCATAATGATTATTACAATTTTGCCAATGGAGATTAACTTTCCCTTCAGGGTAACGGCTGACTGACTTTTGATACGGAAATTTTGTTAGGGAGGAGAAAATCAAAAAATGCGATGTAGTATAAAAAAATCTTACTCGTATGAAATGATCTTAGTACACTAAATGAATAGCTTACTGTCTCGCATTACCCAAACCCCCGGTCAGTGTGGTGGTCGTCCTTGTATTCGAGGGATGAGGATTCGAGTGAGCGACATCGGATCCTTCTC (double strand) [fragment P (PvapBC10, 296 bp)]”, the binding result in series [1] and in series [2] was “binds” each time.
